Data: article PMC7862700
This is one part of the list. The exact form of the protein is not confirmed.

Molecular target: T1, ETS1 (UniProt P14921)
T1 sequence: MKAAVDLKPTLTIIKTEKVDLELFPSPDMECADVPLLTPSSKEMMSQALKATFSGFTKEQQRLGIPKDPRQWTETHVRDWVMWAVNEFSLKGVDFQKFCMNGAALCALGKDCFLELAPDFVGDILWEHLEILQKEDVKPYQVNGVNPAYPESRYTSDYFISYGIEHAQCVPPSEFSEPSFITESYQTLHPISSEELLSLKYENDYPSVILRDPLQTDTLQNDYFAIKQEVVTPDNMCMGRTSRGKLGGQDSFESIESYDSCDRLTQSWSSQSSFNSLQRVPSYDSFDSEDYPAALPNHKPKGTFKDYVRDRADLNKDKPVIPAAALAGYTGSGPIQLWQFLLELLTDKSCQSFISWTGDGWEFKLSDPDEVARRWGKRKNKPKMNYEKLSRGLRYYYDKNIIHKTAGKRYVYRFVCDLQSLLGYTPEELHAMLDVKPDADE
Experiment: DAPPL (digital affinity profiling via proximity ligation, sequencing)
Conditions: 10 mM Tris-HCl pH 7.5, 50 mM NaCl, 1 mM DTT, 4% glycerol, room temperature, 30 min; GST-TFs on glutathione beads, 16-mer random dsDNA library, 0.1% …; high values mean tight binding; double strand, one strand shown; scale: fold enrichment (6-mer frequency, TF over GST control)

Row | Sequence | binding signal
1 | TACCTG | 1.16
2 | CCGTCT | 1.34
3 | TCGTCA | 1.07
4 | CCCGAT | 1.08
5 | AACCCC | 1.23
6 | TCCCGG | 2.04
7 | TTTGTG | 1.14
8 | CTCACG | 1.35
9 | TTGCCA | 1.18
10 | GCTGTT | 1.08
11 | ATTACC | 1.26
12 | TGTCCC | 1.4
13 | CTCTTA | 1.43
14 | AATATC | 1.46
15 | GTGTCC | 1.12
16 | ACTCAA | 1.2
17 | CTTAGC | 1.13
18 | ATTCGA | 1.41
19 | CGGTCT | 1.23
20 | TCAACA | 1.1

Row | Sequence | binding signal
21 | TGGGGT | 1.11
22 | AACAAC | 1.34
23 | AACAAG | 1.14
24 | GTTTCT | 1.34
25 | TAGGTC | 0.998
26 | CCTTAG | 1.24
27 | TCAAGG | 1.05
28 | ATCCTC | 1.52
29 | CGGTAT | 1.04
30 | GTTCGA | 1.19
31 | AACCAC | 1.14
32 | ACAACA | 1.22
33 | ATAATA | 1.26
34 | CCTGAA | 1.36
35 | ACGTAA | 1.08
36 | AAACGC | 1.29
37 | ACACCT | 1.09
38 | TCTGTG | 1.13
39 | CAATGC | 1.28
40 | TAATAT | 1.28

Looked up above.
CAATGC | binding signal: 1.28
TCTGTG | binding signal: 1.13
